Laboratory results published in article PMC9767466.
These are yes or no findings as the source states them, for the method shown. Binding seen in cells or lysates may run through a third protein. A yes stands for co-enrichment or nearness to the bait. Other partners may have been found. Tags and fused reporters may be left off the sequences shown.

Biological target: T1, N-terminal FLAG-tagged EROS in RAW 264.7 macrophages (UniProt Q3TYS2)
T1 sequence: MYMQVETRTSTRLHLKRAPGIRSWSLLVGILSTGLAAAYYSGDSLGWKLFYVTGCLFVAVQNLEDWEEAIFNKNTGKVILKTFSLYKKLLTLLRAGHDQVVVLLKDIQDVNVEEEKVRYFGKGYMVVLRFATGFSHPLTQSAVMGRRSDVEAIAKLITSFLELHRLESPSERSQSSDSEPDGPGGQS
Assay: affinity purification with mass spectrometry; FLAG affinity purification from RAW 264.7 macrophages overexpressing FLAG-tagged EROS against untagged control cells, four biological replicates; elution with 3xFLAG peptide; LC-MS/MS; SAINTexpress, SP > 0.9 for high-confidence interactors

B1: ribophorin-1 (RPN1), endogenous in RAW 264.7 macrophages (protein, UniProt Q91YQ5 26-608)
chain: SSEAPPLVNEDVKRTVDLSSHLAKVTAEVVLVHPGGGSTSRASSFVLALEPELESRLAHLGVQIKGEDEEDNNLEVRETKIKGKSGRFFTVKLPVALDPGSKISVVVETVYTHVLHPYPTQITQSEKQFVVFEGNHYFYSPYPTKTQTMRVKLASRNVESYTKLGNPSRSEDVLDYGPFKDIPAYSQDTFKVHYENNSPFLTITSMTRVIEVSHWGNIAVEENVDLKHTGAVLKGPFSRYDYQRQPDSGISSIRSFKTILPAAAQDVYYRDEIGNVSTSHLLILDDSVEMEIRPRFPLFGGWKTHYIVGYNLPSYEYLYNLGDQYALKMRFVDHVFDEQVIDSLTVKIILPEGAKNIQVDSPYDISRAPDELHYTYLDTFGRPVIVAYKKNLVEQHIQDIVVHYTFNKVLMLQEPLLVVAAFYILFFTVIIYVRLDFSITKDPAAEARMKVACITEQVLTLVNKRLGLYRHFDETVNRYKQSRDISTLNSGKKSLETEHKAVTSEIAVLQSRLKTEGSDLCDRVSEMQKLDAQVKELVLKSAVEAERLVAGKLKKDTYLENEKLSSGKRQELVTKIDHILDAL
binding: binds
